Laboratory results published in patent US20060193796A1, “Method for refining ultraviolet absorbent, ultraviolet absorbent and cosmetic material” (priority 2003, published 2006).

Test: Odor evaluation for ultraviolet absorbers (sensory evaluation)
Conditions: sensory score, 10 ranks: 1, no odor; 10, very intense odor
Protocol: Odor Evaluation for Ultraviolet Absorbers Sensory evaluation of odor was performed for the ultraviolet absorbers. The intensity of overall odor and that of irritating odor were evaluated using one of 10 ranks: 1, no odor; . . .; 10, very intense odor and scored.

| Compound | Evaluation for ultraviolet absorber: Odor |
| --- | --- |
| CCCCC(CC)COC(=O)C=Cc1ccc(OC)cc1 (stereo not shown) [Example 1, 2-ethylhexyl p-methoxycinnamate] | 1 |
| CCCCC(CC)COC(=O)C=Cc1ccc(OC)cc1 (stereo not shown) [Example 2, 2-ethylhexyl p-methoxycinnamate] | 1 |
| CCCCC(CC)COC(=O)C=Cc1ccc(OC)cc1 (stereo not shown) [Example 3, 2-ethylhexyl p-methoxycinnamate] | 1 |
| CCCCC(CC)COC(=O)C=Cc1ccc(OC)cc1 (stereo not shown) [Example 4, 2-ethylhexyl p-methoxycinnamate] | 1 |
| CCCCC(CC)COC(=O)C=Cc1ccc(OC)cc1 (stereo not shown) [compound 1, 2-ethylhexyl p-methoxycinnamate] | 10 |
| CCCCC(CC)COC(=O)C=Cc1ccc(OC)cc1 (stereo not shown) [compound 2, 2-ethylhexyl p-methoxycinnamate] | 6 |
| CCCCC(CC)COC(=O)C=Cc1ccc(OC)cc1 (stereo not shown) [compound 3, 2-ethylhexyl p-methoxycinnamate] | 7 |
| CCCCC(CC)COC(=O)C=Cc1ccc(OC)cc1 (stereo not shown) [compound 4, 2-ethylhexyl p-methoxycinnamate] | 4 |
| CCCCC(CC)COC(=O)C=Cc1ccc(OC)cc1 (stereo not shown) [compound 5, 2-ethylhexyl p-methoxycinnamate] | 6 |
| CCCCC(CC)COC(=O)C=Cc1ccc(OC)cc1 (stereo not shown) [compound 6, 2-ethylhexyl p-methoxycinnamate] | 5 |
| CCCCC(CC)COC(=O)C=Cc1ccc(OC)cc1 (stereo not shown) [compound 7, 2-ethylhexyl p-methoxycinnamate] | 5 |
| CCCCC(CC)COC(=O)C=Cc1ccc(OC)cc1 (stereo not shown) [compound 8, 2-ethylhexyl p-methoxycinnamate] | 5 |
| CCCCC(CC)COC(=O)C=Cc1ccc(OC)cc1 (stereo not shown) [compound 9, 2-ethylhexyl p-methoxycinnamate] | 1 |
